Results published in doi:10.1101/2020.03.19.998880.
No constants are given. Whether binding was seen depends on the method and setting. For part of these data: A result given as binding can be weak or reduced; the word gives no strength. Where a sequence is shown, tags or fusion partners need not be part of it.

B1: AUR3 (Aurora 3), yeast two-hybrid fusion (enzyme, UniProt O64629 1-288)
chain: MSKKSTESDAGNTEKQWSLADFEIGRPLGKGKFGRVYLAREAKSKYIVALKVIFKEQIEKYKIHHQLRREMEIQTSLRHPNILRLFGWFHDNERIFLILEYAHGGELYGVLKQNGHLTEQQAATYIASLSQALAYCHGKCVIHRDIKPENLLLDHEGRLKIADFGWSVQSSNKRKTMCGTLDYLAPEMVENRDHDYAVDNWTLGILCYEFLYGNPPFEAESQKDTFKRILKIDLSFPLTPNVSEEAKNLISQLLVKDPSKRLSIEKIMQHPWIVKNADPKGVCASIDI
B2: AUR1, yeast two-hybrid fusion (enzyme, UniProt Q9M077 1-294)
chain: MAIPTETQHQEKEASDASAAAAQKRWTLSDFDIGKPLGRGKFGHVYLAREKRSNHVVALKVLFKSQLQQSQVEHQLRREVEIQSHLRHPNILRLYGYFYDQKRVYLILEYAARGELYKDLQKCKYFSERRAATYVASLARALIYCHGKHVIHRDIKPENLLIGAQGELKIADFGWSVHTFNRRRTMCGTLDYLPPEMVESVEHDASVDIWSLGILCYEFLYGVPPFEAMEHSDTYRRIVQVDLKFPPKPIISASAKDLISQMLVKESSQRLPLHKLLEHPWIVQNADPSGIYRV
B3: AUR2, yeast two-hybrid fusion (enzyme, UniProt Q683C9 1-282)
chain: MLYQAASEAAQKRWTTSDFDIGKPLGRGKFGHVYLAREKRSDHIVALKVLFKAQLQQSQVEHQLRREVEIQSHLRHPNILRLYGYFYDQKRVYLILEYAVRGELYKELQKCKYFSERRAATYVASLARALIYCHGKHVIHRDIKPENLLIGAQGELKIADFGWSVHTFNRRRTMCGTLDYLPPEMVESVEHDASVDIWSLGILCYEFLYGVPPFEAREHSETYKRIVQVDLKFPPKPIVSSSAKDLISQMLVKESTQRLALHKLLEHPWIVQNADPSGLYRG

How the values were obtained:
Assay in all cases: two-hybrid
[1] = target: INCENP (WYRD), yeast two-hybrid fusion (Arabidopsis thaliana)
[2] = target: INCENP^F1745A, yeast two-hybrid fusion (Arabidopsis thaliana)
[3] = target: INCENP C-terminal region, yeast two-hybrid fusion (Arabidopsis thaliana)
[4] = target: INCENP^W1723G, yeast two-hybrid fusion (Arabidopsis thaliana)

Binder | binding [1] | binding [2] | binding [3] | binding [4]
B1 | binds | binds | binds | no binding
B2 | no binding |  |  | 
B3 | no binding |  |  | 
